For the assay, the target named is GST-tagged S61A N-terminal PSI truncation (first 95 amino acids) (Drosophila). The assay can be described thus: pull-down; GST-PSI(1-95) baits on glutathione-sepharose beads, with ATP and with or without pre-phosphorylation by human casein kinase II, incubated with 100 uL Kc nuclear extract at 4°C for 3 hrs; washes 20 mM Tris-HCl pH 8.0, 200 mM NaCl, 0.02% NP-40; glutathione eluates analysed by SDS-PAGE, silver staining and mass spectrometry; only the target purified.

Results are given in words; binding and its absence hold for the method and conditions named. In cells and extracts the contact can be indirect. A result given as binding can be weak or reduced; the word gives no strength.

B1: Recombination Repair Protein 1 (Rrp1) (protein, UniProt P27864 1-679)
chain: MPRVKAVKKQAEALASEPTDPTPNANGNGVDENADSAAEELKVPAKGKPRARKATKTAVSAENSEEVEPQKAPTAAARGKKKQPKDTDENGQMEVVAKPKGRAKKATAEAEPEPKVDLPAGKATKPRAKKEPTPAPDEVTSSPPKGRAKAEKPTNAQAKGRKRKELPAEANGGAEEAAEPPKQRARKEAVPTLKEQAEPGTISKEKVQKAETAAKRARGTKRLADSEIAAALDEPEVDEVPPKAASKRAKKGKMVEPSPETVGDFQSVQEEVESPPKTAAAPKKRAKKTTNGETAVELEPKTKAKPTKQRAKKEGKEPAPGKKQKKSADKENGVVEEEAKPSTETKPAKGRKKAPVKAEDVEDIEEAAEESKPARGRKKAAAKAEEPDVDEESGSKTTKKAKKAETKTTVTLDKDAFALPADKEFNLKICSWNVAGLRAWLKKDGLQLIDLEEPDIFCLQETKCANDQLPEEVTRLPGYHPYWLCMPGGYAGVAIYSKIMPIHVEYGIGNEEFDDVGRMITAEYEKFYLINVYVPNSGRKLVNLEPRMRWEKLFQAYVKKLDALKPVVICGDMNVSHMPIDLENPKNNTKNAGFTQEERDKMTELLGLGFVDTFRHLYPDRKGAYTFWTYMANARARNVGWRLDYCLVSERFVPKVVEHEIRSQCLGSDHCPITIFFNI
Turning to B1, the binding result is reported as “binds”.

(Values after publication PMC3577899.)
